Results from PMC12847741.
Results are given in words; binding and its absence hold for the method and conditions named. Binding seen in cells or lysates may run through a third protein. A yes stands for co-enrichment or nearness to the bait. Other partners may have been found. Sequences can lack the tags named with a protein.

Chains of the proteins cited; added tags and fusions are not shown.
UniProt Q14247: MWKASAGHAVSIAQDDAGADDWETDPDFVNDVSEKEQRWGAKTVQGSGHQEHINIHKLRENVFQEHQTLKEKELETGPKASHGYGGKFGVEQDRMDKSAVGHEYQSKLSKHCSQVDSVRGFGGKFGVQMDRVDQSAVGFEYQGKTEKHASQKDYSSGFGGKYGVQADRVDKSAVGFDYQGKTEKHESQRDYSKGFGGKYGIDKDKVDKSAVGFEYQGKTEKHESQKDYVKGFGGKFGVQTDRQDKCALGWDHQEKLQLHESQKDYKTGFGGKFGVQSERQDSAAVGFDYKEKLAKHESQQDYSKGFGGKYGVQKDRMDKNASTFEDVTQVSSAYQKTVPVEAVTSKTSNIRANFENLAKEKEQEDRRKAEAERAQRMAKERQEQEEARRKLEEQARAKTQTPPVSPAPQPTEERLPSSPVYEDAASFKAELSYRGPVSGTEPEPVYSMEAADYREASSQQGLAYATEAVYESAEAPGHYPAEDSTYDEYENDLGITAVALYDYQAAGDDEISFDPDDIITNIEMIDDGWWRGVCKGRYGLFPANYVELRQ
UniProt P04792: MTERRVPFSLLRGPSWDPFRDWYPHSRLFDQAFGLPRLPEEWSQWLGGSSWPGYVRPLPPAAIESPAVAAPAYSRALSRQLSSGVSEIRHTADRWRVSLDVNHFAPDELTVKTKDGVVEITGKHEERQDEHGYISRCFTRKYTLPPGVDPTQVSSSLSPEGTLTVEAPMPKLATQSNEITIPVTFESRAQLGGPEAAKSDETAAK

T1: Flag-tagged IFIT3 (interferon-induced protein with tetratricopeptide repeats 3), full-length (human) (UniProt O14879)
T1 sequence: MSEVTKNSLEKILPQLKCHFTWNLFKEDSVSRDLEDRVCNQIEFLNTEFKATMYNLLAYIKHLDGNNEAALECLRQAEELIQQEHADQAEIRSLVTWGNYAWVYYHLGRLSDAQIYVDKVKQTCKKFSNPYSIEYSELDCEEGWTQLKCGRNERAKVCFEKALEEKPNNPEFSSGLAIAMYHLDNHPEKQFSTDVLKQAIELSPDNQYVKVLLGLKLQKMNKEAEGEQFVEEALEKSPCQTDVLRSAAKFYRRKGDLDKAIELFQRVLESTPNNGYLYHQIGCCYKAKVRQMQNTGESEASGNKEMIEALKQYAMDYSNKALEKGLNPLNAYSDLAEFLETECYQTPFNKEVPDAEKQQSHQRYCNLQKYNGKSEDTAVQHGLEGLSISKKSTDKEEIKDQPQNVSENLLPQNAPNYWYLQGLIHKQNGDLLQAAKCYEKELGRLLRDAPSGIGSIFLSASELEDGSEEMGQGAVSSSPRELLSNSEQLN

B1: LIM and SH3 protein 1 (LASP1), endogenous (protein, UniProt Q14847 1-261)
chain: MNPNCARCGKIVYPTEKVNCLDKFWHKACFHCETCKMTLNMKNYKGYEKKPYCNAHYPKQSFTMVADTPENLRLKQQSELQSQVRYKEEFEKNKGKGFSVVADTPELQRIKKTQDQISNIKYHEEFEKSRMGPSGGEGMEPERRDSQDGSSYRRPLEQQQPHHIPTSAPVYQQPQQQPVAQSYGGYKEPAAPVSIQRSAPGGGGKRYRAVYDYSAADEDEVSFQDGDTIVNVQQIDDGWMYGTVERTGDTGMLPANYVEAI
B2: ANXA1 (protein, UniProt P04083 1-346)
chain: MAMVSEFLKQAWFIENEEQEYVQTVKSSKGGPGSAVSPYPTFNPSSDVAALHKAIMVKGVDEATIIDILTKRNNAQRQQIKAAYLQETGKPLDETLKKALTGHLEEVVLALLKTPAQFDADELRAAMKGLGTDEDTLIEILASRTNKEIRDINRVYREELKRDLAKDITSDTSGDFRNALLSLAKGDRSEDFGVNEDLADSDARALYEAGERRKGTDVNVFNTILTTRSYPQLRRVFQKYTKYSKHDMNKVLDLELKGDIEKCLTAIVKCATSKPAFFAEKLHQAMKGVGTRHKALIRIMVSRSEIDMNDIKAFYQKMYGISLCQAILDETKGDYEKILVALCGGN

Target: T1, Flag-tagged IFIT3 (interferon-induced protein with tetratricopeptide repeats 3), full-length (human)
Assay: affinity purification with mass spectrometry; cells lysed in IP lysis buffer 48 h after plasmid transfection; protein A/G magnetic beads with primary antibody or control IgG (4 °C, 2 h), then protein extract for 2 h; PBST washes; SDS-PAGE (silver stain) and MS; cell line not stated

Molecule	binding
CTTN (from UniProt Q14247 1-550)	binds
HSPB1 (from UniProt P04792 1-205)	binds
B1	binds
B2	binds
